# Results published in PubChem BioAssay AID2685 (National Center for Advancing Translational Sciences (NCATS), 2010).
# Some of the results follow. The main result of the screen is listed elsewhere. These columns were measured beside it and carry no call. Most of these compounds were active or inconclusive in the main read-out, so they are no random draw. Words in brackets tell the shape of the fitted curve; partial curves, single points and poor fits give uncertain potencies.
# Assay: qHTS Assay for Lipid Storage Modulators in Drosophila S3 Cells;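 as to cell number change: cells counted by Cell Tracker Red CMTPX staining in the red channel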
# Details: BODIPY lipid droplet fluorescence, 18-24 h; for cell number change: measured here: cell count max response, cells fed with added oleic acid
# In short: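 Drosophila S3 cells loaded with oleic acid (400 uM, as added) and compounds at several concentrations; lipid droplets imaged by 488-nm laser-scanning cytometry, 500–530 nm intensity and object ratio to cell channel. Percent activity normalized to 20 uM Triacsin C.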
# [1] = measured here: lipid fluorescence (Fed channel) AC50, cells fed with added oleic acid
# [2] = measured here: cell number channel AC50, cells fed with added oleic acid
Compound,cell number change,AC50 [1],AC50 [2]
COc1ccccc1-c1nn2c(C3COc4ccccc4O3)nnc2s1 (centres undefined),-16.3%,"1.84 µM [rising, full curve, poor fit]",–
COc1ccccc1C(=O)N(Cc1sccc1C)C1CCS(=O)(=O)C1 (centres undefined),-13.1%,"4.11 µM [rising, full curve, poor fit]",–
COc1ccc([C@@H]2[C@@H]3C(=O)N(C(C)(C)C)C(=O)[C@@H]3[C@]3(Cc4ccccc4)C(=O)N(c4cccc(Br)c4)C(=O)N23)cc1,-17.4%,"18.4 µM [falling, single point]",–
COc1cc(-c2cc(OC)c3c(C)oc(C)c3c(=O)c2)ccc1O,-12.4%,"18.4 µM [rising, partial curve]",–
CN(CC(=O)Nc1ccccc1C(F)(F)F)C(=O)c1cc(-c2cccs2)nn1-c1ccccc1,-33.9%,"5.8 µM [falling, partial curve]","4.11 µM [falling, full curve, poor fit]"
Cc1noc(C)c1C(=O)Nc1ccc(F)cc1,6.92%,–,–
Cc1cc(NC(=O)COC(=O)c2ccccc2S(=O)(=O)N(C)c2ccccc2)no1,-16.2%,"0.411 µM [rising, single point]",–
CCCCCc1ccc(-c2cn(CCCOCc3ccccc3)nn2)cc1,5.18%,–,–
Cc1cc(C)c(C)c(S(=O)(=O)N2CCN(C(=O)C3CSC4(C)CCC(=O)N34)CC2)c1C (centres undefined),-25%,"29.1 µM [rising, single point]",–
COc1ccccc1N1C(=O)N(C(C)=O)C2C1Nc1ccccc1N2C (centres undefined),-19%,"5.8 µM [rising, full curve, poor fit]",–
COc1cc2ncnc(NCc3ccc(Cl)cc3)c2cc1OC,-11.6%,"5.8 µM [falling, full curve, poor fit]",–
Cc1sc2cc(-c3cccc([N+](=O)[O-])c3)c(-c3cccc([N+](=O)[O-])c3)c[n+]2c1C,-42.8%,"6.51 µM [rising, partial curve, poor fit]","6.51 µM [rising, partial curve, poor fit]"
O=C(NC1CC1)c1cc2c(s1)-c1ccccc1OC2,-16.4%,–,–
CCN(CC)S(=O)(=O)c1cccc(C(=O)N[C@H](C(=O)Nc2nc3ccc(F)cc3s2)C(C)C)c1,13.4%,"8.2 µM [rising, partial curve]",–
CCOC(=O)N1CCN(C(=O)c2ccc3ccccc3c2)CC1,1.32%,–,–
Cc1cccc(NC(=O)CCC2CCN(C(=O)C3CC=CCC3)CC2)c1 (centres undefined),3.48%,"0.00461 µM [rising, full curve, poor fit]",–
CCN(Cc1ccccc1)C(=O)CCc1nc(-c2ccc(C)cc2)no1,-20.2%,"0.731 µM [rising, partial curve, poor fit]",–
Cc1nnc(SCC(=O)NC2CCCCCC2)n1C(C)C,11.9%,"0.731 µM [rising, full curve, poor fit]","0.58 µM [rising, full curve, poor fit]"
Cc1occc1C(=O)N1CCCC(N2CCN(c3cccc(C(F)(F)F)c3)CC2)C1 (centres undefined),1.74%,–,"5.17 µM [rising, single point]"

Compound,cell number change,AC50 [1],AC50 [2]
CC1CCCC(C)N1CCNC(=O)CCc1nnc2n(Cc3ccccc3)c(=O)c3ccccc3n12 (centres undefined),-13.5%,"13 µM [falling, partial curve, poor fit]",–
Cc1ccc(S(=O)(=O)CCC(=O)NC2CCCCC2)cc1,12.9%,"7.31 µM [rising, partial curve]",–
CCCCNc1cnn(-c2ccccc2)c(=O)c1Cl,5.71%,"4.11 µM [rising, single point]","0.206 µM [rising, full curve, poor fit]"
Cc1nc(Nc2ccccc2)c2oc3ccc(Cl)cc3c2n1,-6.94%,–,–
CCOP(=O)(OCC)C(NC(C)=O)C(=O)c1ccccc1 (centres undefined),-34.4%,–,–
CCn1cc(C(=O)N[C@@H](CCSC)C(=O)NCCCn2ccnc2)c(=O)c2cc3c(cc21)OCO3,-23.6%,–,–
Cc1ccnc2nc(C(=O)Nc3nc(-c4ccccn4)cs3)nn12,–,"23.1 µM [falling, single point]",–
CCn1c(CNc2ccc(C(=O)O)cc2)nc2ccccc21,-22.3%,"16.4 µM [falling, partial curve]","1.64 µM [falling, full curve, poor fit]"
COC(=O)CNC(=O)c1ccccc1F,-1.66%,"0.92 µM [falling, full curve]",–
O=C(O)c1cc(NCc2ccc(F)cc2)ccc1N1CCOCC1,-36.1%,"3.66 µM [falling, full curve]","1.84 µM [falling, full curve]"
O=S(=O)(Nc1ccc(N2CCCCC2)cc1)c1ccc(F)c(F)c1,-32.3%,"16.4 µM [falling, single point]","29.1 µM [falling, single point]"
CC(Sc1nnc(-c2ccncc2)n1C)C(=O)Nc1nccs1 (centres undefined),-10.5%,"0.891 µM [rising, partial curve, poor fit]",–
COc1cc(S(=O)(=O)Nc2ccccc2N2CCCCC2)ccc1NC(C)=O,3.99%,"18.4 µM [falling, single point]",–
CCN(CC)C(=O)c1csc(Nc2ccc(C)cc2)n1,-32.7%,–,"11.6 µM [falling, partial curve, poor fit]"
CCC(C)N(C(=O)COc1ccc(NC(C)=O)cc1)C1CCS(=O)(=O)C1 (centres undefined),13.9%,"6.51 µM [rising, single point]","6.51 µM [rising, single point]"
CCN(CC)S(=O)(=O)c1ccc2c(c1)N(CC(=O)NCc1ccccn1)C(=O)CO2,-19.9%,–,"0.366 µM [falling, full curve, poor fit]"
CC(=O)N1CCc2cc(S(=O)(=O)CCC(=O)N3CCc4ccccc4C3)ccc21,33.5%,–,"16.4 µM [rising, partial curve, poor fit]"
COc1cccc(/C=N/n2c(C3CCCCC3)n[nH]c2=S)c1OC,132%,–,"29.1 µM [rising, single point]"

# For reference, some entries already given.
Compound,cell number change,AC50 [1],AC50 [2]
O=S(=O)(Nc1ccc(N2CCCCC2)cc1)c1ccc(F)c(F)c1,-32.3%,"16.4 µM [falling, single point]","29.1 µM [falling, single point]"
CC(Sc1nnc(-c2ccncc2)n1C)C(=O)Nc1nccs1 (centres undefined),-10.5%,"0.891 µM [rising, partial curve, poor fit]",–
COc1cc(S(=O)(=O)Nc2ccccc2N2CCCCC2)ccc1NC(C)=O,3.99%,"18.4 µM [falling, single point]",–
CCN(CC)C(=O)c1csc(Nc2ccc(C)cc2)n1,-32.7%,–,"11.6 µM [falling, partial curve, poor fit]"
CCC(C)N(C(=O)COc1ccc(NC(C)=O)cc1)C1CCS(=O)(=O)C1 (centres undefined),13.9%,"6.51 µM [rising, single point]","6.51 µM [rising, single point]"
CCN(CC)S(=O)(=O)c1ccc2c(c1)N(CC(=O)NCc1ccccn1)C(=O)CO2,-19.9%,–,"0.366 µM [falling, full curve, poor fit]"
